1 molecule from paper PMC11264885 can be followed below.

No constants are given. Whether binding was seen depends on the method and setting. In cells and extracts the contact can be indirect. Some results given as binding are weak or reduced against the parent protein; the word gives no strength. Tags and fused reporters may be left off the sequences shown.

The test addresses T1, Myc-tagged transforming growth factor β-activated kinase 1 (TAK1) (UniProt O43318).
T1 sequence: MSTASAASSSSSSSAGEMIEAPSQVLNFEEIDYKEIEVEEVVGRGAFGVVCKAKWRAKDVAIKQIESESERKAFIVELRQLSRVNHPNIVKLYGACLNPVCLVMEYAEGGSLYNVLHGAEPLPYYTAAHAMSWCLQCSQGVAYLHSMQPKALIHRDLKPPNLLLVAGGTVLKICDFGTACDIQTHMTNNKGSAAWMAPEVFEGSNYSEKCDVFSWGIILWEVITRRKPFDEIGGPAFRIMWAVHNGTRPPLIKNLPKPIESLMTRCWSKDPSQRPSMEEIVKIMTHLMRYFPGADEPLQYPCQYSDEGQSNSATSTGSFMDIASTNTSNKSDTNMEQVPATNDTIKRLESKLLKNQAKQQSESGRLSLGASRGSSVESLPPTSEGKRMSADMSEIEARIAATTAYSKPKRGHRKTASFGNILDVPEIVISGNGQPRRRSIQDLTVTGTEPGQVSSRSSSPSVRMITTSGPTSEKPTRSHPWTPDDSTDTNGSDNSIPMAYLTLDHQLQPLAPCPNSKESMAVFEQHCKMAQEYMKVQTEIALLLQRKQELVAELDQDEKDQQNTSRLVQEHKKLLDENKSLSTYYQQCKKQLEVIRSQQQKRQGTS
The experiment in a line: co-IP; 293T cells co-transfected with Flag-tagged USP13 and Myc-tagged TAK1; lysates in IP lysis buffer incubated overnight at 4 °C with anti-Myc agarose or anti-FLAG M2 affinity gel; Western blotting.

B1: Flag-tagged ubiquitin specific protease 13 (USP13) (enzyme, UniProt Q92995 1-863)
chain: MQRRGALFGMPGGSGGRKMAAGDIGELLVPHMPTIRVPRSGDRVYKNECAFSYDSPNSEGGLYVCMNTFLAFGREHVERHFRKTGQSVYMHLKRHVREKVRGASGGALPKRRNSKIFLDLDTDDDLNSDDYEYEDEAKLVIFPDHYEIALPNIEELPALVTIACDAVLSSKSPYRKQDPDTWENELPVSKYANNLTQLDNGVRIPPSGWKCARCDLRENLWLNLTDGSVLCGKWFFDSSGGNGHALEHYRDMGYPLAVKLGTITPDGADVYSFQEEEPVLDPHLAKHLAHFGIDMLHMHGTENGLQDNDIKLRVSEWEVIQESGTKLKPMYGPGYTGLKNLGNSCYLSSVMQAIFSIPEFQRAYVGNLPRIFDYSPLDPTQDFNTQMTKLGHGLLSGQYSKPPVKSELIEQVMKEEHKPQQNGISPRMFKAFVSKSHPEFSSNRQQDAQEFFLHLVNLVERNRIGSENPSDVFRFLVEERIQCCQTRKVRYTERVDYLMQLPVAMEAATNKDELIAYELTRREAEANRRPLPELVRAKIPFSACLQAFSEPENVDDFWSSALQAKSAGVKTSRFASFPEYLVVQIKKFTFGLDWVPKKFDVSIDMPDLLDINHLRARGLQPGEEELPDISPPIVIPDDSKDRLMNQLIDPSDIDESSVMQLAEMGFPLEACRKAVYFTGNMGAEVAFNWIIVHMEEPDFAEPLTMPGYGGAASAGASVFGASGLDNQPPEEIVAIITSMGFQRNQAIQALRATNNNLERALDWIFSHPEFEEDSDFVIEMENNANANIISEAKPEGPRVKDGSGTYELFAFISHMGTSTMSGHYICHIKKEGRWVIYNDHKVCASERPPKDLGYMYFYRRIPS
As to B1, the binding entry is “binds”.
